Where a name gives a salt, the structure may show the parent alone. This is one part of the list. The numbers are fractions of the control, whatever unit the source prints. Most entries show no effect beyond the scatter of the controls.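 MIN6, a mouse insulinoma beta-cell line, stably carries a lentiviral reporter where Pdx1 and Ins1 promoters each drive a nuclear fluorescent protein; Hoechst staining and automated imaging counted cells. Drugs were candidate hits if Ins1 promoter readout exceeded two median absolute deviations from DMSO controls while Pdx1 activity stayed near normal.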

The test has as its system MIN6. Kind of test: % Pdx1+ Ins1-low (RFP-only, immature) cells relative to DMSO control (fold of DMSO control); higher = more immature Pdx1+/Ins1-low cells. Particulars: 8.5 µM; 48 h; glucose 5 mM.
Regarding `CNCCCC1c2ccccc2C=Cc2ccccc21` [Protriptyline hydrochloride], the “% Pdx1+ Ins1-low” value worked out at 0.718.
In the case of `CCCCCCC[N+](CC)(CC)CCCCc1ccc(Cl)cc1` [Clofilium tosylate], the “% Pdx1+ Ins1-low” value amounted to 1.58.
Under `C[N+]1(CCCCC[N+]2(C)CCCC2)CCCC1` [Pentolinium bitartrate] stands 1.03; under `CCCc1cc(=O)[nH]c(=S)[nH]1` [Propylthiouracil], 0.399; under `COc1ccc(CCN(C)CCCC(C#N)(c2ccc(OC)c(OC)c2)C(C)C)cc1OC` (centres undefined) [Verapamyl hydrochloride], 1.07.
Under `CCCN(CCC)S(=O)(=O)c1ccc(C(=O)O)cc1` [Probenecid] stands 0.89.
The figure for `C[C@]12CC[C@@H]3c4ccc(O)cc4CC[C@H]3[C@@H]1CC[C@@H]2O` [Estradiol-17 beta] is 1.03; for `CN(C)CC/C=C1/c2ccccc2Sc2ccc(Cl)cc21` [Chlorprothixene hydrochloride] it is 1.13; for `NC(Cc1cc(I)c(Oc2cc(I)c(O)c(I)c2)c(I)c1)C(=O)O` (centres undefined) [Thyroxine (L)] it is 0.841.
As for `CC(=O)[C@H]1CC[C@H]2[C@@H]3CCC4=CC(=O)CC[C@]4(C)[C@H]3CC[C@]12C` [Progesterone], the “% Pdx1+ Ins1-low” value was determined as 0.624.
Under `CN(C)CCOC(c1ccccc1)c1ccccc1` [Diphenhydramine hydrochloride] stands 1.36.
Turning to `N=C(N)NC(=O)Cc1c(Cl)cccc1Cl` [Guanfacine hydrochloride], the “% Pdx1+ Ins1-low” value came out at 1.03.
The figure for `C[n+]1cc2c3c(ccc2c2ccc4cc5c(cc4c21)OCO5)OCO3` [Sanguinarine] is 0.687; for `Clc1ccc(CSC(Cn2ccnc2)c2ccc(Cl)cc2Cl)cc1` (centres undefined) [Sulconazole nitrate] it is 0.795.
Under `CN1C(=O)CC(c2ccccc2)C1=O` (centres undefined) [Phensuximide] stands 0.777; under `N[C@@H]1CONC1=O` [D-cycloserine], 0.925; under `O=C(O)COCCN1CCN(C(c2ccccc2)c2ccc(Cl)cc2)CC1` (centres undefined) [Cetirizine dihydrochloride], 1.39.
The figure for `CC(=O)O[C@]1(C(C)=O)CC[C@H]2[C@@H]3C=C(Cl)C4=CC(=O)[C@@H]5C[C@@H]5[C@]4(C)[C@H]3CC[C@@]21C` [Cyproterone acetate] is 0.888; for `O=C(O)/C=C/c1ccc(O)c(O)c1` [Caffeic acid] it is 1.18; for `COc1cc2nc(N(C)CCCNC(=O)C3CCCO3)nc(N)c2cc1OC` (centres undefined) [Alfuzosin hydrochloride] it is 1.03.
In the case of `Clc1ccc(Cn2c(CN3CCCC3)nc3ccccc32)cc1` [Clemizole hydrochloride], the “% Pdx1+ Ins1-low” value stood at 1.46.
Under `NC(=O)c1cc[n+](CC2=C(C(=O)[O-])N3C(=O)[C@@H](NC(=O)[C@@H](c4ccccc4)S(=O)(=O)O)[C@H]3SC2)cc1` [Cefsulodin sodium salt] stands 0.832; under `CC1=C(/C=C/C(C)=C/C=C/C(C)=C/C(=O)O)C(C)(C)CCC1` [Retinoic acid], 0.843.
The figure for `N=C(N)NS(=O)(=O)c1ccc(N)cc1` [Sulfaguanidine] is 1.14.
In the case of `Cc1ncc(CO)c(CO)c1O` [Pyridoxine hydrochloride], the “% Pdx1+ Ins1-low” value came to 0.838.
Under `CCC1(c2ccccc2)NC(=O)N(C)C1=O` (centres undefined) [Mephenytoin] stands 1.21; under `CCc1c(C)[nH]c2c1C(=O)C(CN1CCOCC1)CC2` (centres undefined) [Molindone hydrochloride], 0.668; under `Cc1c(C)c2c(c(C)c1O)CCC(C)(C(=O)O)O2` (centres undefined) [Trolox], 0.746.
The figure for `CC[C@H](C)C(=O)O[C@H]1C[C@@H](C)C=C2C=C[C@H](C)[C@H](CC[C@@H]3C[C@@H](O)CC(=O)O3)[C@H]21` [Lovastatin] is 1.17.
The figure for `CCN(CC)CCOC(=O)c1ccc(N)cc1` [Procaine hydrochloride] is 1.26; for `CC(C)=CCC/C(C)=C/CC/C(C)=C/CC/C(C)=C/CC/C(C)=C/CC/C(C)=C/CC1=C(C)C(=O)c2ccccc2C1=O` [Vitamin K2] it is 0.985.
For the molecule `CN(C)CCn1nnnc1SCC1=C(C(=O)O)N2C(=O)[C@@H](NC(=O)Cc3csc(N)n3)[C@H]2SC1` [Cefotiam hydrochloride], the “% Pdx1+ Ins1-low” value came out at 0.907.
Under `CC(=O)O[C@H]1C[C@@]2(C)[C@@H](C[C@@H](O)[C@H]3[C@@]4(C)CC[C@@H](O)[C@@H](C)[C@@H]4CC[C@@]32C)/C1=C(\CCC=C(C)C)C(=O)O` [Fusidic acid sodium salt] stands 0.959; under `N=C(N)NCc1cccc(I)c1` [Iobenguane sulfate], 1.13; under `Cc1ccnc(NS(=O)(=O)c2ccc(N)cc2)n1` [Sulfamerazine], 0.975.
`C[C@H]1NC(=O)NC1=O` [Methylhydantoin-5-(D)]: the “% Pdx1+ Ins1-low” value stood at 0.388.
Under `COc1ccc(C[C@H](N)C(=O)N[C@H]2[C@@H](O)[C@H](n3cnc4c(N(C)C)ncnc43)O[C@@H]2CO)cc1` [Puromycin dihydrochloride] stands 0.793; under `Nc1ccc(S(=O)(=O)Nc2cnc3ccccc3n2)cc1` [Sulfaquinoxaline sodium salt], 1.03.
The figure for `CNC[C@H](O)[C@@H](O)[C@H](O)[C@H](O)CO` [Meglumine] is 0.819; for `CC(=O)Oc1ccccc1C(=O)Oc1ccccc1C(=O)O` [Acetylsalicylsalicylic acid] it is 0.947; for `CNC(=O)c1c(I)c(C(=O)NCC(=O)Nc2c(I)c(C(=O)O)c(I)c(C(=O)NCCO)c2I)c(I)c(N(C)C(C)=O)c1I` [Ioxaglic acid] it is 1.11.
For `CCCCNc1cc(C(=O)O)cc(S(N)(=O)=O)c1Oc1ccccc1` [Bumetanide], the “% Pdx1+ Ins1-low” value stood at 1.02.
Turning to `CC(C)n1c(/C=C/C(O)CC(O)CC(=O)O)c(-c2ccc(F)cc2)c2ccccc21` (centres undefined) [Fluvastatin sodium salt], the “% Pdx1+ Ins1-low” value came to 0.937.
Turning to `CN(C/C=C/c1ccccc1)Cc1cccc2ccccc12` [Naftifine hydrochloride], the “% Pdx1+ Ins1-low” value turned out to be 1.03.
In the case of `CN1C(=O)OC(C)(C)C1=O` [Trimethadione], the “% Pdx1+ Ins1-low” value was found to be 0.888.
Turning to `CC(=O)CCCCn1c(=O)c2c(ncn2C)n(C)c1=O` [Pentoxifylline], the “% Pdx1+ Ins1-low” value amounted to 0.934.
The figure for `CC(C)NC[C@H](O)COc1cccc2ccccc12` [(S)-propranolol hydrochloride] is 0.658; for `CCN1CCCC(OC(=O)C(c2ccccc2)c2ccccc2)C1` (centres undefined) [Piperidolate hydrochloride] it is 0.806.
Consider `NS(=O)(=O)c1cc(Cl)c(Cl)c(S(N)(=O)=O)c1` [Dichlorphenamide], for which the “% Pdx1+ Ins1-low” value turned out to be 0.735.

These data come from the supplement of paper PMC4807443.
